# Data source: PubChem BioAssay AID1224830 (NIAID, 2016)
# Test: 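Regulators of TLR4 signalling towards TNF-alpha in macrophage-like cells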 (primary screen)
# System: human THP-1 monocytic leukaemia cells, TNF dual-luciferase reporter clone, PMA-differentiated to macrophage-like cells
# Reagent: siRNA pool against human genes, 50 nM
# Duration: LPS for 4 h, given about 3 days after siRNA transfection
# Challenge: bacterial LPS (TLR4 ligand), 10 ng/ml
# Read-out: 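TNF firefly reporter luminescence divided by renilla, normalised to the plate median, then turned into a robust z-score for each replicate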
# Reading the numbers: TNF reporter robust z-score: higher = stronger TNF reporter response to LPS
# Rule for the call: 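a well is active when its z-score exceeds 2.8 or falls below -1.5; control wells carry no call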
# The deposit covers about 18,000 reagents; below is a random part of them. In the full data, about 2,900 (16%) got an active call. 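Calls are made per well; low scores hint the gene aids the LPS response, high scores that it dampens it.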 Repeated entries: four replicate wells of each siRNA pool.
Target gene,TNF reporter robust z-score,activity call
KIFC1,0.71,inactive
KIFC1,1.36,inactive
KIFC1,-0.66,inactive
KIFC1,-0.4,inactive
RNF111,0.56,inactive
RNF111,1.03,inactive
RNF111,-1.5,inactive
RNF111,-0.11,inactive
METAP1,-0.11,inactive
METAP1,0.12,inactive
METAP1,0.72,inactive
METAP1,1.78,inactive
KMT5C,-1.04,inactive
KMT5C,0.12,inactive
KMT5C,-0.53,inactive
KMT5C,1.43,inactive
ZNF2,-0.67,inactive
ZNF2,0.51,inactive
ZNF2,-1.01,inactive
ZNF2,-0.01,inactive
H3C1,1.64,inactive
H3C1,0.31,inactive
H3C1,-0.18,inactive
H3C1,3.67,active
ZNF443,-0.99,inactive
ZNF443,-0.77,inactive
ZNF443,-0.58,inactive
ZNF443,-0.3,inactive
SIRT6,-0.59,inactive
SIRT6,-0.26,inactive
SIRT6,-0.31,inactive
SIRT6,0.49,inactive
INTS11,0.2,inactive
INTS11,1.53,inactive
INTS11,-0.82,inactive
INTS11,-0.65,inactive
GPR152,0.06,inactive
GPR152,1.15,inactive
GPR152,0.72,inactive
GPR152,1.03,inactive
ILF2,1.48,inactive
ILF2,2.13,inactive
ILF2,1.83,inactive
ILF2,1.65,inactive
ERO1B,0,inactive
ERO1B,2.23,inactive
ERO1B,-0.69,inactive
ERO1B,-0.73,inactive
XKR5,0.01,inactive
XKR5,0.56,inactive
XKR5,-0.73,inactive
XKR5,-0.51,inactive
GARIN3,-0.2,inactive
GARIN3,0.67,inactive
GARIN3,-0.4,inactive
GARIN3,2.17,inactive
DNAJB1,1.03,inactive
DNAJB1,-0.16,inactive
DNAJB1,1.51,inactive
DNAJB1,0.38,inactive
NEK3,-0.09,inactive
NEK3,1.97,inactive
NEK3,2.33,inactive
NEK3,-0.11,inactive
TMEM65,0.12,inactive
TMEM65,-0.03,inactive
TMEM65,0.19,inactive
TMEM65,-0.35,inactive
HTR2A,0.27,inactive
HTR2A,0.53,inactive
HTR2A,0.18,inactive
HTR2A,0.13,inactive
PSMD2,-2.2,active
PSMD2,-2.26,active
PSMD2,-2.12,active
PSMD2,-2.14,active
SETD1A,-0.55,inactive
SETD1A,0.21,inactive
SETD1A,1.8,inactive
SETD1A,0.79,inactive
TECTA,-0.66,inactive
TECTA,1.11,inactive
TECTA,0.14,inactive
TECTA,0.28,inactive
NR4A3,-0.66,inactive
NR4A3,0.31,inactive
NR4A3,-0.58,inactive
NR4A3,-0.63,inactive
CHD7,-0.95,inactive
CHD7,0.06,inactive
CHD7,0.23,inactive
CHD7,-0.28,inactive
KANSL1,0.34,inactive
KANSL1,-0.88,inactive
KANSL1,-0.46,inactive
KANSL1,-0.87,inactive
TCEAL6,-0.74,inactive
TCEAL6,-0.84,inactive
TCEAL6,0.08,inactive
TCEAL6,-0.81,inactive
YAF2,1.42,inactive
YAF2,-0.23,inactive
YAF2,0.27,inactive
YAF2,0.58,inactive
CCDC159,-0.71,inactive
CCDC159,-0.01,inactive
CCDC159,-0.21,inactive
CCDC159,0.14,inactive
FKBP1A,0,inactive
FKBP1A,-0.7,inactive
FKBP1A,-0.9,inactive

Reformatted: results already given
Target gene | TNF reporter robust z-score | activity call
TECTA | 1.11 | inactive
TECTA | 0.14 | inactive
TECTA | 0.28 | inactive
NR4A3 | -0.66 | inactive
NR4A3 | 0.31 | inactive
NR4A3 | -0.58 | inactive
NR4A3 | -0.63 | inactive
CHD7 | -0.95 | inactive
CHD7 | 0.06 | inactive
CHD7 | 0.23 | inactive
CHD7 | -0.28 | inactive
KANSL1 | 0.34 | inactive
